Experimental data: paper PMC11022558

Molecular target: Histone acetyltransferase Sas3 (something about silencing 3), FLAG-tagged (Aspergillus fumigatus)
Assay: affinity purification with mass spectrometry; Sas3-FLAG captured on anti-FLAG M2 agarose beads from 5 mg total protein of mycelium of the Sas3-FLAG strain; lysis buffer 10 mM Tris-HCl pH 7.5, 150 mM NaCl, 0.5 mM EDTA, 1 mM DTT, 0.01% Triton X-100, 1 mM PMSF, protease inhibitors; LC-MS/MS

B1: NsdD, sexual development transcription factor (protein, UniProt Q4WYQ4 1-493)
chain: MGSLEATHRQRDHLPTISFFTKDGSGYTSRNSTVSSPTPLVSPTTMYPSQPSPYSYQPSAASAPPQPGYISPPESRRALEEEKEKQLQPQRQSLPSIHEALRNDSPLPYPAPPTSGPLPQAHPHPPHALVGRSAGDGPAGPPNPFSNGAPAGPYMREPAYSQLQTEASRSSLASITTQESRNPSLQSLNSSKSPTHSAKTGLTSIAGSQTGSGYEYSAPTSAGSIASPNGYTAYSQPFTFQSQPPPNAPTYPLAHHDTRPYAATPWKPGAPEPPRVEELKNGLAGRPAVPVQPQGDSAKRHLDIYEVETSLNEIVEVSTRTLDFSRHYATRAHQTQRSGPMLGTLPPLHEIEDMINLQRRNQDALMRLRTAVLNQEHALAEQMAQRKAFSAGGVHDSDHMAMYQEEFKGSGGFAGPDTKKRRGKAAPPGRCHSCNRAETPEWRRGPDGARTLCNACGLHYAKLTRKMGASKAASLGSNLKPKAALDPTPPGTR
binding: binds

B2: Protein kinase C PkcA (protein, UniProt Q4WVG0 1-1106)
chain: MDGDDLIASVYRKIEREKALITAASNMRQSTDNPLVQQRVDANIRDGRKNIAYLEEKMRELQLRQMKQEGASPTDKRLPPNPDGSAPVPPPKDYAPGYSGHEREYGDASGAYPHGGAGTMPSGAPFADPRPFAPVPKARPNYTKLDLIKYDTPYLGPKIQLMLSQLEFKLSVEKQYKAGIEKMVRLYQDEGDRKSRQDAEGRRIESNQKIQLLKQALKRYEDLHVDIESAEAPDDESLSTPNLRKPLTGLLTLRIHAVEDVDHAASSRFSRGPETFVVVKVEDAIKARTKATRTDKWQDEPFNIEIDKANEIELTVYDKSGDRPTPIGMLWVRISDIAEEMRRKKIESEFNASGWVSADKMEHGAAHGRQDAGGAPGSSNRPPSGGHSGGPGQGYAGGAPGGASAGPVLIDSWFALEPVGRIHLTLSFAKQLKDRRPFDIGLNRQGAVRQKKEEVHEKQGHKFVTQQFYNIMRCALCGDFLKYAAGMQCADCKYTCHRKCYPKVVTKCISKANYETDPDEEKINHRIPHRFEGFSNISANWCCHCGYLLPFGRKSAKRCTECGLTCHAQCTHLVPDFCGMSMEAANQILETLIRAKNHNKSASVSSGLSGRTLRPGGPPQAPQDNVALAYPQKPVEGAYGAPQRQPSAEAISAATNTYIPPQSPTAAQRQHIPPRTSSSQSPAAAAAAAAAAATGLRTPQQASDPNRPVQPPPSSHAHYDPAAYASYQQAIPPQAMQKMGAPYGMPQQQQQQAVAPMQQQVAVKEEIPPQQPKVRIGLDHFNFLAVLGKGNFGKVMLAETKSTKKLYAIKVLKKEFIIENDEVESTKSEKRVFLIANKERHPFLLNLHACFQTETRVYFVMEYISGGDLMLHIQRGQFGLKRAQFYAAEVLLALKYFHENGVIYRDLKLDNILLTLDGHIKIADYGLCKENMWYGSTTSTFCGTPEFMAPEILLDKKYGRAVDWWAFGVLIYQMLLQQSPFRGEDEDEIYDAILADEPLYPIHMPRDSVSILQKLLTREPELRLGSGPTDAQEVMSHAFFRNINWDDIYHKRVPPPFLPTISSPTDTSNFDQEFTSVTPVLTPVQSVLSQAMQEEFRGFSYTADFA
binding: binds

Results are given in words; binding and its absence hold for the method and conditions named. In cells and extracts the contact can be indirect. A yes stands for co-enrichment or nearness to the bait. Other partners may have been found.
